From article doi:10.1101/2022.11.05.515301 come the findings set out here.

Protein sequences, listed by entry. Tags and fused reporters are not part of them. Lines headed by an entry give the natural chain unless they say otherwise; changes in a name come on top.
UniProt A0A0H3CE63: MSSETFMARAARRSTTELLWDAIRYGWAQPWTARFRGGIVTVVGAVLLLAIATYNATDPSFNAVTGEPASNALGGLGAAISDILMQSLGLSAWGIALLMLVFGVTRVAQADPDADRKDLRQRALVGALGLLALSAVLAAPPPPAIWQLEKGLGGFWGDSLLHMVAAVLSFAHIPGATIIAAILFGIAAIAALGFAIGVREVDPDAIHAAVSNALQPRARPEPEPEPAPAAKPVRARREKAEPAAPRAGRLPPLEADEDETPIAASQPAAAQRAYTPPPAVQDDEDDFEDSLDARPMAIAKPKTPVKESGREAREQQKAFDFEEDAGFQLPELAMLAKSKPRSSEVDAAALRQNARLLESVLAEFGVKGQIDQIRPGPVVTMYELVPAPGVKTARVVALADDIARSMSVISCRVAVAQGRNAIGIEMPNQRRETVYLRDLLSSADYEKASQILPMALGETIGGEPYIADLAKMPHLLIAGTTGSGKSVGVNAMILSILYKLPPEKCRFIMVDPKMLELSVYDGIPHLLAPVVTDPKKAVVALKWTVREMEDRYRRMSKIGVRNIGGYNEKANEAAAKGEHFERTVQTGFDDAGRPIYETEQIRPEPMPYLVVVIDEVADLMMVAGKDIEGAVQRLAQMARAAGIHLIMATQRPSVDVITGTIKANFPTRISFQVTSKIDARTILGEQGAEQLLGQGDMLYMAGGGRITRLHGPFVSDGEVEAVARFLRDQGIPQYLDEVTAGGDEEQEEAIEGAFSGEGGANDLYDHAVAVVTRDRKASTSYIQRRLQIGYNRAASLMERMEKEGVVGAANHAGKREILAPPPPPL

No constants are given. Whether binding was seen depends on the method and setting. In cells and extracts the contact can be indirect. A yes stands for co-enrichment or nearness to the bait. Other partners may have been found.

This assay concerns the target 3xFLAG-FzlA (C. crescentus). Briefly: affinity purification with mass spectrometry.

With FtsK (from UniProt A0A0H3CE63), the binding entry is “binds”.
